# Source: publication PMC4906373
# These are yes or no findings as the source states them, for the method shown. In cells and extracts the contact can be indirect. Some entries that bind do so weakly or less than the wild type.
# T1: DENR (density regulated protein), endogenous mouse (mouse (endogenous in brain)) (UniProt Q9CQJ6)
# T1 sequence: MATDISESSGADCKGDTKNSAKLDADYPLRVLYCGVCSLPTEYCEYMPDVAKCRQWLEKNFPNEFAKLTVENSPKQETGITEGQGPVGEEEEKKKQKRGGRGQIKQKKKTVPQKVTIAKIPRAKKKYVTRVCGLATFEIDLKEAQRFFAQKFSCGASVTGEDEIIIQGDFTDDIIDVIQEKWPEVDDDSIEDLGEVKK
# T2: MCTS1, endogenous mouse (mouse (endogenous in brain)) (UniProt Q9DB27)
# T2 sequence: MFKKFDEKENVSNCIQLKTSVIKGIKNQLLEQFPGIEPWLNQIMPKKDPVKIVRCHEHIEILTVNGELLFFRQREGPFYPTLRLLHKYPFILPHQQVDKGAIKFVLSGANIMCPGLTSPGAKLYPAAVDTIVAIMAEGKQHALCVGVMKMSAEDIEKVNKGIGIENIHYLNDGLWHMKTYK
# Assays:
# [1] = molecular target: T1, DENR (density regulated protein), endogenous mouse (mouse (endogenous in brain)); test: co-IP; neonatal P0 mouse brain lysate; immunoprecipitation with goat anti-MCTS1 antibody (2 mg total protein) or with DENR antibody, overnight at 4°C, protein A Sepharose beads; control with preimmunized sera; immunoblot
# [2] = molecular target: T2, MCTS1, endogenous mouse (mouse (endogenous in brain)); test: as above
binding [1],binding [2],Binder
binds,,"MCTS1, endogenous mouse (protein, UniProt Q9DB27 1-181) MFKKFDEKENVSNCIQLKTSVIKGIKNQLLEQFPGIEPWLNQIMPKKDPVKIVRCHEHIEILTVNGELLFFRQREGPFYPTLRLLHKYPFILPHQQVDKGAIKFVLSGANIMCPGLTSPGAKLYPAAVDTIVAIMAEGKQHALCVGVMKMSAEDIEKVNKGIGIENIHYLNDGLWHMKTYK"
,binds,"DENR (density regulated protein), endogenous mouse (protein, UniProt Q9CQJ6 1-198) MATDISESSGADCKGDTKNSAKLDADYPLRVLYCGVCSLPTEYCEYMPDVAKCRQWLEKNFPNEFAKLTVENSPKQETGITEGQGPVGEEEEKKKQKRGGRGQIKQKKKTVPQKVTIAKIPRAKKKYVTRVCGLATFEIDLKEAQRFFAQKFSCGASVTGEDEIIIQGDFTDDIIDVIQEKWPEVDDDSIEDLGEVKK"
